Source: the supplement of paper PMC11098740
The list shows a part of the results. Repeats are few or missing, and single values can be far off.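 The assay uses a mixed pool of 41 HAP1 clones in which 61 cancer-associated proteins bear intron-inserted fluorescent tags, and clones are distinguished by image pattern. Results are compared against DMSO-treated control wells, and the BRD4 degrader dBET6 is the positive control.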

Protein sequences, listed by entry. Tags and fused reporters are not part of them.
UniProt O14980, whole entry: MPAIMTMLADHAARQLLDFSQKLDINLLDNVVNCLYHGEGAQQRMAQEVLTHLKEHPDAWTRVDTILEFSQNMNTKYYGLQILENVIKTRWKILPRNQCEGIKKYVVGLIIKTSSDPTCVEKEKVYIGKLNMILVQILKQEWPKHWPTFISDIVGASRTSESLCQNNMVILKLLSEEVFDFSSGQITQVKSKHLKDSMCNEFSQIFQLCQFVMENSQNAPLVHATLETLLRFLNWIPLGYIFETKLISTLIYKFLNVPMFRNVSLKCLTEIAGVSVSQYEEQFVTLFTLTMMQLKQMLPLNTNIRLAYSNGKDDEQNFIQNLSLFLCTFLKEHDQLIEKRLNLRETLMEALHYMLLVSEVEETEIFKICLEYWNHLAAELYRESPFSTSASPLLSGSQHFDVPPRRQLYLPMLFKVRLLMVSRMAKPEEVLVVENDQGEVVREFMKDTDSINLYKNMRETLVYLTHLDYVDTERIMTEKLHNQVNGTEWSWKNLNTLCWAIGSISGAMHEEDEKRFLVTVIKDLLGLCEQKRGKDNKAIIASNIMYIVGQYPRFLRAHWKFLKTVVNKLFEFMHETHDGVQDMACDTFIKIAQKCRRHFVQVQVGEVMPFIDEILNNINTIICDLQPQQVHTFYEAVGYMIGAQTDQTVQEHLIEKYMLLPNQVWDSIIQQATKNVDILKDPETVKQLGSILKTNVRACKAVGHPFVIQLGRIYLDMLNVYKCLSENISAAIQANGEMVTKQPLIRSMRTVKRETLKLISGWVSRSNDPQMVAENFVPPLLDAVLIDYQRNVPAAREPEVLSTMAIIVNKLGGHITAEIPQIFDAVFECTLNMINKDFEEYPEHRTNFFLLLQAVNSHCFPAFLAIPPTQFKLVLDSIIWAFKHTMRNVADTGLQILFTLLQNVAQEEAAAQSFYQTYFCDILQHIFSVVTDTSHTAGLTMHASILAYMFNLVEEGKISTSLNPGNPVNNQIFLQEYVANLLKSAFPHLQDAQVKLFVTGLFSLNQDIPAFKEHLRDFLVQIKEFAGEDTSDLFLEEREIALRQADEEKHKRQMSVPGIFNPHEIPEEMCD

These compounds were tested against XPO1 (intron 15 mScarlet tag, HAP1) (UniProt O14980) (assay: XPO1 fluorescence intensity change vs DMSO (log2 fold change); higher = more XPO1 protein). Conditions: 6 h.

| SMILES | XPO1 fluorescence intensity change (log2) |
| --- | --- |
| O=P1(NCCCl)OCCCN1CCCl (centres undefined) [Ifosfamide] (20 µM) | -0.142 |
| CCC(C)C(C)(COC(N)=O)COC(N)=O (centres undefined) [Mebutamate] (10 µM) | 0.077 |
| NCC(CC(=O)O)c1ccc(Cl)cc1 (centres undefined) [Baclofen] (10 µM) | 0.0265 |
| CC[C@@H](C(N)=O)N1CCCC1=O [Levetiracetam] (10 µM) | -0.283 |
| NC(=O)C[S@@+]([O-])C(c1ccccc1)c1ccccc1 [Armodafinil (Modafinil)] (10 µM) | 0.0482 |
| O=[N+]([O-])O[C@H]1CO[C@H]2[C@@H]1OC[C@H]2O[N+](=O)[O-] [Isosorbide Dinitrate] (9.99947 µM) | -0.000319 |
| Cn1c(CCCC(=O)O)nc2cc(N(CCCl)CCCl)ccc21 [Bendamustine] (20 µM) | 0.173 |
| Cc1cccc([C@H](C)c2c[nH]cn2)c1C [Dexmedetomidine] (10.0000196 µM) | -0.0622 |
| O=C(O)CCCc1ccc(N(CCCl)CCCl)cc1 [Chlorambucil] (10.66 µM) | 0.0536 |
| C=C1C[C@@H]2[C@H](CC[C@]3(C)C(=O)CC[C@@H]23)[C@@]2(C)C=CC(=O)C=C12 [Exemestane] (20 µM) | 0.124 |

The compounds below were run against BRD4 (intron 10 mScarlet tag, HAP1) (UniProt O60885) (assay: BRD4 median nuclear fluorescence intensity change vs DMSO (log2 fold change); higher = more BRD4 protein). Conditions: 6 h.

| SMILES | BRD4 median nuclear fluorescence intensity change (log2) |
| --- | --- |
| CN[C@@H]1C[C@H]2O[C@@](C)([C@@H]1OC)n1c3ccccc3c3c4c(c5c6ccccc6n2c5c31)C(=O)NC4 [staurosporine] (10 µM) | 0.0944 |
| CCOc1ccc(-n2c(CCl)nc3ccccc3c2=O)cc1 (10 µM) | -0.155 |
| CC(=O)c1c(C)cc(C)c(CNc2ccc(C#N)c(Cl)c2)c1C (10 µM) | 0.0254 |
| C/C=C(/C)C(=O)O[C@H]1C(C)=C2[C@H]([C@@H]1OC(=O)CCCCCCC)[C@@](C)(OC(C)=O)C[C@H](OC(=O)CCC)[C@@]1(O)[C@H]2OC(=O)[C@@]1(C)O [thapsigargin] (10 µM) | -0.19 |
